Source: patent US20240197890A1, “FLAVONE DERIVATIVES AND USES IN TARGETING CK2-MEDIATED DISEASES AND CONDITIONS” (Salk Institute for Biological Studies, priority 2020, published 2024)
At least one compound was matched to its structure with a doubt left.

The chains behind the UniProt entries cited, without tags or fusion partners.
UniProt P68400, whole entry: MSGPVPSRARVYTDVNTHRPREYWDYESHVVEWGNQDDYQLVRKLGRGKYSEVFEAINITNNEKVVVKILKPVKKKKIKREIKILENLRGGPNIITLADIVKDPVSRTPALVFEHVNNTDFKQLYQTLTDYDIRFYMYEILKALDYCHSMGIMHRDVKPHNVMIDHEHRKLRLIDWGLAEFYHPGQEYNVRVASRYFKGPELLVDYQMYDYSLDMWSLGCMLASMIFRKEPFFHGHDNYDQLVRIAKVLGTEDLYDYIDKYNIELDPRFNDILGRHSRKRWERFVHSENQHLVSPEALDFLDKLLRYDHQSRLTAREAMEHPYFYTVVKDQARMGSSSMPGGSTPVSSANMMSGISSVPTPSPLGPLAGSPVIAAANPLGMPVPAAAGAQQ

Assays:
[1] = target: T1, recombinant human CK2a1 kinase (Homo sapiens, UniProt P68400); assay: In vitro kinase assay (PhosphoSens, Cysteine-Sox sensor peptide); format: biochemical; conditions: FIG. 4A
T1 construct: purchased Thermo Fisher PV3248
Procedure: Kinase assays. In vitro kinase assays were run using the Cysteine-Sox-Kinase Sensor AQT0696, 96 assay Kit (AssayQuant Tech, CSKS-AQT0696). […] Slopes corresponding to linear reaction rates were obtained for each compound concentration (RFU/sec), normalized to DMSO controls, and IC50 values were determined by applying the dose response non-linear regression model in GraphPad Prism. For kinase assays using postmortem brain tissue lysates, brain tissues were homogenized at 4° C. using a Bullet Blender (Next Advance) in kinase buffer (20 mM HEPES 7.4 pH, 150 mM NaCl, 1% Triton-X, 1 mM EDTA, 1 mM EGTA plus Halt Protease and Phosphase Inhibitor Cocktail). After sonication and clarification, protein concentration was measured by BCA Assay. CK2 activity was measured as described above, except lysates were used instead of purified kinase at 2 μL/well (˜0.3-0.4 ug protein per reaction). […] Patient lysates were individually preincubated with 20 μM CX4945 for 30 min at room temperature before initiating kinase kinetic assays.

[2] = tested on: IL-6, IL-8, TNF-α and MCP-1 in primary human cerebellar astrocytes (HCA); assay: Flow-cytometry assay of intracellular cytokine production in IL1-β-treated astrocytes; format: cell-based
Procedure: Flow cytometry. For each well of HCA in a 6-well plate, 2 mL of fresh media with GolgiPLUG (BD #555029, 1:1000) and GolgiSTOP (BD #554724, 1:1000) with 20 μM compound or vehicle (DMSO) and IL1-β 10 ng/mL or DPBS was added. The cells were incubated for 5 h at 37° C. Cells were collected with TrypLE and plated into a 96-well V-bottom plate for staining. The plate was centrifuged for 5 min, 1300 rpm, 4° C. to pellet cells, which were subsequently resuspended in 100 μl DPBS with 1 μl Zombie Violet (Biolegend #423113) and 5 μl Human Trustain FC block (Biolegend #422302) per well for 15 min at room temperature in the dark. The plate was centrifuged, supernatant was aspirated, and the cells were washed with 100 μl/well DPBS. Cells were fixed with 100 μl/well of Cytofix/Cytoperm (BD) for 20 min at 4° C. The plate was centrifuged, supernatant was aspirated, and cells were resuspended in 100 μl Permwash (BD) and incubated for 15 min at 4° C. The plate was centrifuged, supernatant was aspirated, and cells were incubated with 100 μl/well of Ab mix or isotype mix in Permwash (see below) for 20 min at 4° C., followed by centrifugation and 2× PermWash washes. The cells were resuspended in 100 ul DPBS and transferred to FACS tubes containing 200 ul of PBS (total volume per tube 300 μl) for analysis on FACS Analyzers (LSRII or Fortessa). […]

`O=c1cc(-c2ccc(O)cc2)oc2cc(O)c(O)c(O)c12` [scutellarein] was tested, and the “inhibition of CK2a1 in vitro (activity class in words)” value [1] was “medium active”, the “suppression of IL1-β-induced IL-6, IL-8, TNF-α and MCP-1 cytokine upregulation” value ([2]; 20 μM, human astrocytes) was “intermediate activity” and the “summary of SAR data, activity class” value ([2]; at 20 μM, FIG. 5A) was “intermediately active”.
